Data source: PubChem BioAssay AID602196 (INSERM, 2012)
This is a random part of about 23,000 reagents. Of all reagents, 455 (2%) were called active. 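Active includes both protection and sensitisation; some change values fall well beyond the stated -50 to +50 range.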 Unmarked entries are inactive. Not all columns of the deposit are shown. Not stated in the record: the amount of reagent.

- Aim: 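Modifiers of cisplatin sensitivity in A549 cells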
- System: human A549 lung cancer cells
- Knock-down reagent: siRNA pair against human genes
- Timing: 48 h transfection before cisplatin; time from cisplatin to read-out not stated
- Treatment: cisplatin at a dose killing half of control-siRNA cells; exact dose and duration not given
- Detection: 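Shift in cisplatin death relative to control siRNA, from -50 (all cells die) to +50 (no cells die); siRNAs harmful on their own scored 0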
- Direction: two-siRNA summed score (-2 to +2): higher = both siRNAs protect from cisplatin killing; -2 means both sensitise; mean protection from cisplatin (shift in death): higher = protection from cisplatin killing
- Rule for the call: 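Each siRNA scores 0 if harmful alone by LDH or WST-1, otherwise +1 if it reduces and -1 if it increases cisplatin killing; a gene is active when both siRNAs agree (sum +2 or -2)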
- Meaning of the calls: active = both siRNAs shift cisplatin killing the same way; inactive = no consistent shift, or siRNA harmful alone

RPL39
- two-siRNA summed score (-2 to +2): 0
- mean protection from cisplatin (shift in death) (%): 36.3

LINC00656
- two-siRNA summed score (-2 to +2): -1
- mean protection from cisplatin (shift in death) (%): -5.2

PLGLB2
- two-siRNA summed score (-2 to +2): -1
- mean protection from cisplatin (shift in death) (%): -9.8

LINC00305
- two-siRNA summed score (-2 to +2): 0
- mean protection from cisplatin (shift in death) (%): 11.9

FLJ40244
- two-siRNA summed score (-2 to +2): 0
- mean protection from cisplatin (shift in death) (%): 25.8

KIAA0592
- two-siRNA summed score (-2 to +2): 0
- mean protection from cisplatin (shift in death) (%): 9.5

RHO
- two-siRNA summed score (-2 to +2): 0
- mean protection from cisplatin (shift in death) (%): 2.7

ZCCHC10
- two-siRNA summed score (-2 to +2): 0
- mean protection from cisplatin (shift in death) (%): 10.1

PAF1
- two-siRNA summed score (-2 to +2): 0
- mean protection from cisplatin (shift in death) (%): 4.4

AKT1S1
- two-siRNA summed score (-2 to +2): 0
- mean protection from cisplatin (shift in death) (%): 0.2

PPIG
- two-siRNA summed score (-2 to +2): -1
- mean protection from cisplatin (shift in death) (%): -2.3

LOC399961
- two-siRNA summed score (-2 to +2): 0
- mean protection from cisplatin (shift in death) (%): 12.3

USP31
- two-siRNA summed score (-2 to +2): -1
- mean protection from cisplatin (shift in death) (%): -21.2

ANO5
- two-siRNA summed score (-2 to +2): 1
- mean protection from cisplatin (shift in death) (%): 8.3

KIAA1337
- two-siRNA summed score (-2 to +2): -1
- mean protection from cisplatin (shift in death) (%): -2

LOC440062
- two-siRNA summed score (-2 to +2): 1
- mean protection from cisplatin (shift in death) (%): 16

AFF1
- two-siRNA summed score (-2 to +2): 0
- mean protection from cisplatin (shift in death) (%): 7

SLC4A8
- two-siRNA summed score (-2 to +2): 0
- mean protection from cisplatin (shift in death) (%): 2.2

Records listed so far whose gene name starts with A or a (3):
AKT1S1
- two-siRNA summed score (-2 to +2): 0
- mean protection from cisplatin (shift in death) (%): 0.2

ANO5
- two-siRNA summed score (-2 to +2): 1
- mean protection from cisplatin (shift in death) (%): 8.3

AFF1
- two-siRNA summed score (-2 to +2): 0
- mean protection from cisplatin (shift in death) (%): 7

Further results:
LOC439982
- two-siRNA summed score (-2 to +2): -1
- mean protection from cisplatin (shift in death) (%): -5.4

SIGLEC5
- two-siRNA summed score (-2 to +2): 1
- mean protection from cisplatin (shift in death) (%): 1.7

TNNC1
- two-siRNA summed score (-2 to +2): -1
- mean protection from cisplatin (shift in death) (%): -14.4

PI15
- two-siRNA summed score (-2 to +2): 0
- mean protection from cisplatin (shift in death) (%): -0.7

WDR83
- two-siRNA summed score (-2 to +2): 0
- mean protection from cisplatin (shift in death) (%): -3.3

LINC00964
- two-siRNA summed score (-2 to +2): 0
- mean protection from cisplatin (shift in death) (%): 4.3

LOC441014
- two-siRNA summed score (-2 to +2): 0
- mean protection from cisplatin (shift in death) (%): 11.9

PHF24
- two-siRNA summed score (-2 to +2): 1
- mean protection from cisplatin (shift in death) (%): 6.1

SGPL1
- two-siRNA summed score (-2 to +2): 0
- mean protection from cisplatin (shift in death) (%): -0.3

SERPINE2
- two-siRNA summed score (-2 to +2): 0
- mean protection from cisplatin (shift in death) (%): -5

RAPGEF1
- two-siRNA summed score (-2 to +2): 0
- mean protection from cisplatin (shift in death) (%): -0.8

DYDC2
- two-siRNA summed score (-2 to +2): 0
- mean protection from cisplatin (shift in death) (%): 0.1

SOX17
- two-siRNA summed score (-2 to +2): -1
- mean protection from cisplatin (shift in death) (%): -7

VPS13B
- two-siRNA summed score (-2 to +2): 1
- mean protection from cisplatin (shift in death) (%): 13.8

SLC28A1
- two-siRNA summed score (-2 to +2): 0
- mean protection from cisplatin (shift in death) (%): 6.9

MLXIP
- two-siRNA summed score (-2 to +2): 0
- mean protection from cisplatin (shift in death) (%): 6.4

SMYD5
- two-siRNA summed score (-2 to +2): -1
- mean protection from cisplatin (shift in death) (%): -1.2

GNGT1
- two-siRNA summed score (-2 to +2): 0
- mean protection from cisplatin (shift in death) (%): 13.6

CTF1
- two-siRNA summed score (-2 to +2): 0
- mean protection from cisplatin (shift in death) (%): 13.3

KCNJ4
- two-siRNA summed score (-2 to +2): -1
- mean protection from cisplatin (shift in death) (%): -12

LOC440057
- two-siRNA summed score (-2 to +2): 0
- mean protection from cisplatin (shift in death) (%): -0.2

GDF11
- two-siRNA summed score (-2 to +2): 0
- mean protection from cisplatin (shift in death) (%): 1.8
